Earlier results, collected in PMC12389355, “Physiologically Based Pharmacokinetic Modeling to Assess Perpetrator and Victim Cytochrome P450 2C Induction Risk” (Pharmaceutics, 2025).

Conditions: victim drug after administration with rifampicin; References of Table 4 ([27]-[43]), DIDB; cited from earlier work

For `CC(C)c1c(C(=O)Nc2ccccc2)c(-c2ccccc2)c(-c2ccc(F)cc2)n1CC[C@@H](O)C[C@@H](O)CC(=O)O` [Atorvastatin (acid), atorvastatin], the “% AUC Reduction (Clinically Observed)” value is given as 80.2%.
